From article doi:10.1101/2021.03.25.436271
These are yes or no findings as the source states them, for the method shown. For some of these results: Binding seen in cells or lysates may run through a third protein. Some entries that bind do so weakly or less than the wild type.

The chains behind the UniProt entries cited, without tags or fusion partners. Residues count along the entry.
UniProt Q13158, whole entry: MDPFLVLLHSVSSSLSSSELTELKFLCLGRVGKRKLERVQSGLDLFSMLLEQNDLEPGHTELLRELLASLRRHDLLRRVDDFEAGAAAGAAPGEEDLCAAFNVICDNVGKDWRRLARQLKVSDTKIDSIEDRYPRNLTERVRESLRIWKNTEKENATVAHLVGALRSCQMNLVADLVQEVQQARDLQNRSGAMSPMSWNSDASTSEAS
UniProt P25445, 26-335: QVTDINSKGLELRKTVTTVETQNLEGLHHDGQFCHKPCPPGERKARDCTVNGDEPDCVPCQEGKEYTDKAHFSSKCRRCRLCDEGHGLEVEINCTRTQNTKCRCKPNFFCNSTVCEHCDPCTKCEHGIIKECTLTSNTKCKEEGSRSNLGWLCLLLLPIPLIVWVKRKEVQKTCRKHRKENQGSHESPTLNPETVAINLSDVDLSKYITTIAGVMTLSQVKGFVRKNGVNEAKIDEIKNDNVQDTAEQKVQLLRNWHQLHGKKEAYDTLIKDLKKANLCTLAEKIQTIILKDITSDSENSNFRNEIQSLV
UniProt Q9H1R3, whole entry: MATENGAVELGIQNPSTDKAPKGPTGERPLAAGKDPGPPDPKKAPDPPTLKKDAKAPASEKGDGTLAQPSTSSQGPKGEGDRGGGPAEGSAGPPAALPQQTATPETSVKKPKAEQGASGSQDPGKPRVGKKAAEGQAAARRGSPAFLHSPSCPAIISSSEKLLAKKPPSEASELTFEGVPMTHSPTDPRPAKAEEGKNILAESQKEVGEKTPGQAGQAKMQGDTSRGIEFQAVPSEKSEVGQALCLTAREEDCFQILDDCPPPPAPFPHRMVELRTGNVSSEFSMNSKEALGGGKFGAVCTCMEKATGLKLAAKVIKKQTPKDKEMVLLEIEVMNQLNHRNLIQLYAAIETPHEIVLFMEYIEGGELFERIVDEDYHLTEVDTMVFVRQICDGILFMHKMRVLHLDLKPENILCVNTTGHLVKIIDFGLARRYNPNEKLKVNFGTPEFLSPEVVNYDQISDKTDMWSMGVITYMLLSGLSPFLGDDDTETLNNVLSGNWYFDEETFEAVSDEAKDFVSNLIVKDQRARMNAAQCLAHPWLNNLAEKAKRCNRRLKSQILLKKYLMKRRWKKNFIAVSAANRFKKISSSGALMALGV

Assays:
[1] = molecular target: FADD-TAP (Fas-associated death domain protein with a C-terminal TAP affinity tag) (UniProt Q13158); assay: pull-down
[2] = molecular target: CD95 (Fas/Apo1) (human (endogenous in BJAB, Jurkat)) (UniProt P25445); assay: co-IP
[3] = molecular target: Fas-associated death domain protein (FADD), native (human (endogenous in Jurkat, BJAB, MCF-7)) (UniProt Q13158); assay: co-IP
[4] = molecular target: FADD-TAP (Fas-associated death domain protein with a C-terminal TAP affinity tag) (UniProt Q13158); assay: SEC

- binding [2]: binds
Substance: Myosin Light Chain Kinase 2 (MYLK2) (from UniProt Q9H1R3 1-596) (enzyme)
- binding [1]: binds
- binding [3]: binds
- binding [4]: binds
